Our source for the cell number change and AC50 values is PubChem BioAssay AID2685 (National Center for Advancing Translational Sciences (NCATS), 2010).

The list shows a part of the results. The main result of the screen is listed elsewhere. These columns were measured beside it and carry no call. Most of these compounds were active or inconclusive in the main read-out, so they are no random draw. Potencies come from curve fits of mixed quality, noted in brackets.

This assay in a line: qHTS Assay for Lipid Storage Modulators in Drosophila S3 Cells.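 On cell number change: cells counted by Cell Tracker Red CMTPX staining in the red channel.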 Particulars: BODIPY lipid droplet fluorescence, 18-24 h; for cell number change: measured here: cell count max response, cells fed with added oleic acid. In a few lines: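 Drosophila S3 cells loaded with oleic acid (400 uM, as added) and compounds at several concentrations; lipid droplets imaged by 488-nm laser-scanning cytometry, 500–530 nm intensity and object ratio to cell channel. Percent activity normalized to 20 uM Triacsin C.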
(In general: qHTS replaces the single test concentration by a dilution series.)

Where [1] appears, read: measured here: lipid fluorescence (Fed channel) AC50, cells fed with added oleic acid.
Where [2] appears, read: measured here: cell number channel AC50, cells fed with added oleic acid.

Take `C#CCN1C(=O)C(O)(CC(=O)/C=C/c2ccco2)c2ccccc21` (stereo not drawn): the cell number change is -29.6%. One may read the AC50 as the concentration giving half of the maximal activity seen. As to `O=C(Nc1cccc2ncccc12)c1ccc2c(c1)OCCO2`, the cell number change came out at 3.52%. For the same compound, the AC50 under setting [1] was 9.2 µM [rising, partial curve].

In the case of `CN1C(=S)SC(C)(C)C1/[N+]([O-])=C/c1cccnc1` (stereo not drawn), the cell number change turned out to be 14.2%. In addition, the AC50 under setting [1] is 0.231 µM [rising, full curve, poor fit].

Turning to `COc1ccccc1-n1c(SCC(=O)Nc2ccc3c(c2)OCO3)nc2c(c1=O)SCC2`, the cell number change was 97.4%. Besides, the AC50 under setting [2] was 0.411 µM [rising, full curve]. Moreover, the AC50 under setting [1] is 0.326 µM [rising, full curve]. For the compound `CCCCN(C(=O)c1c(CC)noc1C)c1c(N)n(CC(C)C)c(=O)[nH]c1=O`, the cell number change is -52.7%. For the same compound, under setting [2], the AC50 was 1.16 µM [falling, full curve, poor fit]. Besides, the AC50 under setting [1] is 0.82 µM [falling, full curve]. As to `COc1ccccc1CCNC(=O)c1ccccc1SCC(=O)N1CCCC1`, the cell number change is 6.18%. The AC50 under setting [2] was 0.517 µM [falling, single point]. For the same compound, under setting [1], the AC50 was 6.51 µM [rising, single point].

As for `CCOC(=O)C1CCN(C(=O)Cn2cnc3sc(C)c(S(=O)(=O)N4CCC(C)CC4)c3c2=O)CC1`, the concentration at half-maximal activity (AC50) under setting [1] was 0.82 µM [falling, full curve]. As for `COc1ccccc1-c1ccc(C(=O)O)o1`, the cell number change was -15.3%. Moreover, the AC50 under setting [1] was 25.9 µM [falling, partial curve, poor fit].

Turning to `Cc1cc(C)nc(NS(=O)(=O)c2ccccc2)n1`, the cell number change worked out at 4.05%. Further, under setting [1], the AC50 was 29.1 µM [rising, single point]. As to `c1coc(CNc2ncnc3sc4c(c23)CCCCC4)c1`, the cell number change is -8.29%. The half-maximal activity concentration (AC50) under setting [1] was 0.58 µM [rising, full curve, poor fit].

`CCn1nc(C(=O)Nc2ccc(S(=O)(=O)Nc3ncccn3)cc2)c2ccccc2c1=O`: the cell number change was -13.2%. In addition, the AC50 under setting [2] is 5.8 µM [rising, single point].

For `O=C(NCc1ccccc1)c1cccc(COc2cccc(Cl)c2)c1`, the cell number change stood at 0.297%. `Cc1ccccc1OCC(=O)NNC(=O)C1CCCCC1C(=O)O` (stereo not drawn): the cell number change is -0.23%. For the same compound, the AC50 under setting [1] was 29.1 µM [rising, single point]. Take `Cc1cc(N=CC2=C(O)CCCC2=O)no1`: the cell number change stood at 2.92%. `Cc1nc2c(c(=O)n1CCC1=CCCCC1)c1nc3ccccc3nc1n2/N=C/c1ccccc1`: the AC50 under setting [1] is 4.61 µM [rising, partial curve, poor fit]. Regarding `CN(Cc1ccccc1)C(=O)COC(=O)CCNC(=O)c1ccccc1Cl`, the cell number change is -55.7%. Besides, the AC50 under setting [2] is 0.259 µM [falling, full curve, poor fit]. Moreover, the AC50 under setting [1] was 0.164 µM [falling, full curve, poor fit]. As for `C=CCNC(=O)c1ccc(CSc2nc3ccccc3s2)cc1`, the cell number change is 1.08%. In the case of `COC(=O)c1sccc1NC(=O)/C=C/c1ccc(Cl)cc1`, under setting [1], the AC50 was 0.411 µM [rising, full curve, poor fit].

Turning to `CCOC(=O)COc1ccc(Oc2nc(C)cc(OC)n2)nn1`, the cell number change is 9.77%. Further, the AC50 under setting [1] is 29.1 µM [rising, partial curve, poor fit]. Take `Brc1ccc(CSc2nnc(-c3ccccn3)n2Cc2ccco2)cc1`: the cell number change was -28.4%. Further, the AC50 under setting [1] was 14.6 µM [rising, partial curve].

Consider `CCCCc1nc(SCCOC)c2c(=O)n(C)c(=O)n(C)c2n1`, for which the AC50 under setting [2] was 3.66 µM [rising, partial curve, poor fit] and the AC50 under setting [1] is 4.11 µM [rising, full curve, poor fit]. On to `COc1cc(NC(=O)CN(c2ccc(C)cc2)S(=O)(=O)c2c(C)nn(C)c2C)cc(OC)c1`, for which the cell number change was -8.73%.

Regarding `CCC(C)(C)n1nnnc1CN1CCSCC1`, the cell number change is -4.79%. The AC50 under setting [1] was 16.4 µM [falling, partial curve]. For `CCOc1ccc(S(=O)(=O)N2CCN(C(=O)C3CCC3)CC2)cc1`, the cell number change worked out at 32.5%. The AC50 under setting [2] was 13 µM [rising, partial curve]. For the same compound, the AC50 under setting [1] was 29.1 µM [rising, single point]. Consider `CCOc1ccc(Br)cc1S(=O)(=O)Nc1ccc(C(=O)Nc2ccccc2OC)cc1`, for which the cell number change was 22.1%. Moreover, under setting [2], the AC50 was 0.00461 µM [falling, full curve, poor fit]. For `CC(C)(C)c1cc(NC(=O)c2ccco2)no1`, the cell number change was 11.4%. Take `Cc1c(Cl)cccc1NC(=O)Cn1cccc1`: the cell number change came out at 20.3%. For the same compound, the AC50 under setting [1] is 6.51 µM [falling, partial curve]. Take `COc1ccc(-c2nc3ccccc3n2CCC(C)C)cc1OC`: the cell number change was 62.3%. Also, the AC50 under setting [2] was 1.46 µM [rising, partial curve].

With `O=C(Nc1cccc(-c2nc3ncccc3o2)c1)c1sc2ccccc2c1Cl`, the cell number change worked out at 6.32%. The AC50 under setting [1] is 0.146 µM [rising, full curve, poor fit]. `O=S(=O)(c1ccc2c(c1)CCN2)N1CCOCC1`: the cell number change came out at 2.71%. The AC50 under setting [1] was 0.259 µM [rising, full curve]. With `COc1cc(/C=C/C(=O)OCC(=O)NC(=O)NC(C)C)cc(S(=O)(=O)N2CCc3ccccc32)c1OC`, the cell number change was 14.3%. Also, the AC50 under setting [1] was 3.26 µM [rising, full curve]. As to `Cc1ccc(C(=O)Nc2cc(=O)n(C)c(=O)n2C)cc1C`, the AC50 under setting [1] is 0.00461 µM [rising, full curve, poor fit].

`CCOC(=O)N1CCN(C(=O)c2cc3c(s2)-c2ccccc2OC3)CC1`: the cell number change was 64.7%. For the same compound, the AC50 under setting [2] is 14.6 µM [rising, partial curve]. `Cn1c(=O)c2c(nc(CN3CCOCC3)n2CC(O)CO)n(C)c1=O` (stereo not drawn): the cell number change worked out at 2.97%. For the same compound, the AC50 under setting [1] was 18.4 µM [falling, partial curve, poor fit].

For the compound `Cc1ccc(C)c(S(=O)(=O)c2c(C)cc(C)[nH]c2=O)c1`, the cell number change was -12.2%. In addition, the AC50 under setting [1] is 13 µM [rising, partial curve, poor fit]. As to `Cc1ccccc1NC(=O)C(=O)N/N=C/c1cccc(Br)c1`, the cell number change is 12%. The AC50 under setting [1] is 2.31 µM [rising, partial curve]. On to `Cc1ccc(C(=O)NC2CCCc3ccccc32)cc1[N+](=O)[O-]` (stereo not drawn), for which the cell number change was -2.7%. In addition, the AC50 under setting [1] is 29.1 µM [rising, single point]. Consider `CCOC(=O)c1ccc(-c2ccc(/C=C(\C#N)C(=O)NCC3CCCO3)o2)cc1` (stereo not drawn), for which the cell number change was 35.2%. In addition, the AC50 under setting [2] was 18.4 µM [rising, single point]. Moreover, the AC50 under setting [1] was 25.9 µM [rising, single point]. With `CCOc1ccccc1/C=C/c1onc(C)c1S(=O)(=O)N1CCC(C(=O)NC)CC1`, the cell number change was -11.5%.
